{
  "source": "paper PMC7205312",
  "key": {"[1]": {"biological_target": "Tm-2^2 CC-NB-ARC (D481V, L246A)-Rop (tomato) (UniProt Q71BG9)", "assay": "co-IP; Myc-Rop and YFP-Rop tagged (plasma-membrane tethered) copies co-expressed in pair in N. benthamiana; IP with anti-GFP beads; blot anti-Myc"}, "[2]": {"biological_target": "Tm-2^2 NB-ARC (D481V) (tomato) (UniProt Q71BG9)", "assay": "co-IP; isolated domains with HA or Myc tag co-expressed in N. benthamiana, no MP; IP with anti-Myc beads; blot anti-HA"}, "Tm-2^2 (D481V) (tomato)": {"biological_target": "Tm-2^2 (D481V) (tomato) (UniProt Q71BG9)", "assay": "co-IP; Myc- and HA-tagged copies of full-length Tm-2^2 (or D481V) co-expressed WITHOUT TMV MP in N. benthamiana; IP with anti-Myc beads; blot anti-HA"}, "[3]": {"biological_target": "Tm-2^2 NB-ARC (D481V, L233A) (tomato) (UniProt Q71BG9)", "assay": "co-IP; isolated domains with HA or Myc tag co-expressed in N. benthamiana, no MP; IP with anti-Myc beads; blot anti-HA"}, "[4]": {"biological_target": "Tm-2^2 NB-ARC (D481V, L242A) (tomato) (UniProt Q71BG9)", "assay": "co-IP; isolated domains with HA or Myc tag co-expressed in N. benthamiana, no MP; IP with anti-Myc beads; blot anti-HA"}, "[5]": {"biological_target": "Tm-2^2 NB-ARC (D481V, L246A) (tomato) (UniProt Q71BG9)", "assay": "co-IP; isolated domains with HA or Myc tag co-expressed in N. benthamiana, no MP; IP with anti-Myc beads; blot anti-HA"}, "Tm-2^2 (L233A) (tomato)": {"biological_target": "Tm-2^2 (L233A) (tomato) (UniProt Q71BG9)", "assay": "co-IP; Myc- and HA-tagged copies of full-length Tm-2^2 (or mutant) co-expressed WITH TMV MP-YFP (GenBank BAF93925.1) in N. benthamiana; leaves collected at 22-24 hpi; IP with anti-Myc beads, 3 h at 4°C, IP buffer 25 mM Tris-HCl pH 7.5, 150 mM NaCl, 1 mM EDTA, 10% glycerol, 10 mM DTT, 0.2-0.5% NP-40; blot anti-HA"}},
  "note": "Results are given in words; binding and its absence hold for the method and conditions named. In cells and extracts the contact can be indirect. Some results given as binding are weak or reduced against the parent protein; the word gives no strength.",
  "data": [
    {"binder": "Tm-2^2 CC-NB-ARC (D481V, L246A)-Rop (domain or fragment, UniProt Q71BG9 1-492) MAEILLTSVINKSVEIAGNLLIQEGKRLYWLKEDIDWLQREMRHIRSYVDNAKAKEAGGDSRVKNLLKDIQELAGDVEDLLDDFLPKIQQSNKFNYCLKRSSFADEFAMEIEKIKRRVVDIDRIRKTYNIIDTDNNNDDCVLLDRRRLFLHADETEIIGLDDDFNMLQAKLLNQDLHYGVVSIVGMPGLGKTTLAKKLYRLIRDQFECSGLVYVSQQPRASEILLDIAKQIGLTEQKMKENLEDNARSLLKIKRYVILLDDIWDVEIWDDLKLVLPECDSKVGSRMIITSRNSNVGRYIGGESSLHALQPLESEKSFELFTKKIFNFDDNNSWANASPDLVNIGRNIVGRCGGIPLAIVVTAGMLRARERTEHAWNRVLESMGHKVQDGCAKVLALSYNDLPIASRPCFLYFGLYPEDHEIRAFDLINMWIAEKFIVVNSGNRREAEDLAEDVLNDLVSRNLIQLAKRTYNGRISSCRIHVLLHSLCVDLAK", "values": [
      {"measurement": "binding", "setting": "[1]", "value": "binds"}
    ]},
    {"binder": "Tm-2^2 NB-ARC (D481V) (domain or fragment, UniProt Q71BG9 141-492) VLLDRRRLFLHADETEIIGLDDDFNMLQAKLLNQDLHYGVVSIVGMPGLGKTTLAKKLYRLIRDQFECSGLVYVSQQPRASEILLDIAKQIGLTEQKMKENLEDNLRSLLKIKRYVILLDDIWDVEIWDDLKLVLPECDSKVGSRMIITSRNSNVGRYIGGESSLHALQPLESEKSFELFTKKIFNFDDNNSWANASPDLVNIGRNIVGRCGGIPLAIVVTAGMLRARERTEHAWNRVLESMGHKVQDGCAKVLALSYNDLPIASRPCFLYFGLYPEDHEIRAFDLINMWIAEKFIVVNSGNRREAEDLAEDVLNDLVSRNLIQLAKRTYNGRISSCRIHVLLHSLCVDLAK", "values": [
      {"measurement": "binding", "setting": "[2]", "value": "binds"}
    ]},
    {"binder": "Tm-2^2 (D481V) (receptor, UniProt Q71BG9 1-861) MAEILLTSVINKSVEIAGNLLIQEGKRLYWLKEDIDWLQREMRHIRSYVDNAKAKEAGGDSRVKNLLKDIQELAGDVEDLLDDFLPKIQQSNKFNYCLKRSSFADEFAMEIEKIKRRVVDIDRIRKTYNIIDTDNNNDDCVLLDRRRLFLHADETEIIGLDDDFNMLQAKLLNQDLHYGVVSIVGMPGLGKTTLAKKLYRLIRDQFECSGLVYVSQQPRASEILLDIAKQIGLTEQKMKENLEDNLRSLLKIKRYVILLDDIWDVEIWDDLKLVLPECDSKVGSRMIITSRNSNVGRYIGGESSLHALQPLESEKSFELFTKKIFNFDDNNSWANASPDLVNIGRNIVGRCGGIPLAIVVTAGMLRARERTEHAWNRVLESMGHKVQDGCAKVLALSYNDLPIASRPCFLYFGLYPEDHEIRAFDLINMWIAEKFIVVNSGNRREAEDLAEDVLNDLVSRNLIQLAKRTYNGRISSCRIHVLLHSLCVDLAKESNFFHTAHDAFGDPGNVARLRRITFYSDNVMIEFFRSNPKLEKLRVLFCFAKDPSIFSHMAYFDFKLLHTLVVVMSQSFQAYVTIPSKFGNMTCLRYLRLEGNICGKLPNSIVKLTRLETIDIDRRSLIQPPSGVWESKHLRHLCYRDYGQACNSCFSISSFYPNIYSLHPNNLQTLMWIPDKFFEPRLLHRLINLRKLGILGVSNSTVKMLSIFSPVLKALEVLKLSFSSDPSEQIKLSSYPHIAKLHLNVNRTMALNSQSFPPNLIKLTLAYFSVDRYILAVLKTFPKLRKLKMFICKYNEEKMDLSGEANGYSFPQLEVLHIHSPNGLSEVTCTDDVSMPKLKKLLLTGFHCRISLSERLKKLSK", "values": [
      {"measurement": "binding", "setting": "Tm-2^2 (D481V) (tomato)", "value": "binds"}
    ]},
    {"binder": "Tm-2^2 NB-ARC (D481V, L233A) (domain or fragment, UniProt Q71BG9 141-492) VLLDRRRLFLHADETEIIGLDDDFNMLQAKLLNQDLHYGVVSIVGMPGLGKTTLAKKLYRLIRDQFECSGLVYVSQQPRASEILLDIAKQIGATEQKMKENLEDNLRSLLKIKRYVILLDDIWDVEIWDDLKLVLPECDSKVGSRMIITSRNSNVGRYIGGESSLHALQPLESEKSFELFTKKIFNFDDNNSWANASPDLVNIGRNIVGRCGGIPLAIVVTAGMLRARERTEHAWNRVLESMGHKVQDGCAKVLALSYNDLPIASRPCFLYFGLYPEDHEIRAFDLINMWIAEKFIVVNSGNRREAEDLAEDVLNDLVSRNLIQLAKRTYNGRISSCRIHVLLHSLCVDLAK", "values": [
      {"measurement": "binding", "setting": "[3]", "value": "binds"}
    ]},
    {"binder": "Tm-2^2 NB-ARC (D481V, L242A) (domain or fragment, UniProt Q71BG9 141-492) VLLDRRRLFLHADETEIIGLDDDFNMLQAKLLNQDLHYGVVSIVGMPGLGKTTLAKKLYRLIRDQFECSGLVYVSQQPRASEILLDIAKQIGLTEQKMKENAEDNLRSLLKIKRYVILLDDIWDVEIWDDLKLVLPECDSKVGSRMIITSRNSNVGRYIGGESSLHALQPLESEKSFELFTKKIFNFDDNNSWANASPDLVNIGRNIVGRCGGIPLAIVVTAGMLRARERTEHAWNRVLESMGHKVQDGCAKVLALSYNDLPIASRPCFLYFGLYPEDHEIRAFDLINMWIAEKFIVVNSGNRREAEDLAEDVLNDLVSRNLIQLAKRTYNGRISSCRIHVLLHSLCVDLAK", "values": [
      {"measurement": "binding", "setting": "[4]", "value": "binds"}
    ]},
    {"binder": "Tm-2^2 NB-ARC (D481V, L246A) (domain or fragment, UniProt Q71BG9 141-492) VLLDRRRLFLHADETEIIGLDDDFNMLQAKLLNQDLHYGVVSIVGMPGLGKTTLAKKLYRLIRDQFECSGLVYVSQQPRASEILLDIAKQIGLTEQKMKENLEDNARSLLKIKRYVILLDDIWDVEIWDDLKLVLPECDSKVGSRMIITSRNSNVGRYIGGESSLHALQPLESEKSFELFTKKIFNFDDNNSWANASPDLVNIGRNIVGRCGGIPLAIVVTAGMLRARERTEHAWNRVLESMGHKVQDGCAKVLALSYNDLPIASRPCFLYFGLYPEDHEIRAFDLINMWIAEKFIVVNSGNRREAEDLAEDVLNDLVSRNLIQLAKRTYNGRISSCRIHVLLHSLCVDLAK", "values": [
      {"measurement": "binding", "setting": "[5]", "value": "binds"}
    ]},
    {"binder": "Tm-2^2 (L233A) (receptor, UniProt Q71BG9 1-861) MAEILLTSVINKSVEIAGNLLIQEGKRLYWLKEDIDWLQREMRHIRSYVDNAKAKEAGGDSRVKNLLKDIQELAGDVEDLLDDFLPKIQQSNKFNYCLKRSSFADEFAMEIEKIKRRVVDIDRIRKTYNIIDTDNNNDDCVLLDRRRLFLHADETEIIGLDDDFNMLQAKLLNQDLHYGVVSIVGMPGLGKTTLAKKLYRLIRDQFECSGLVYVSQQPRASEILLDIAKQIGATEQKMKENLEDNLRSLLKIKRYVILLDDIWDVEIWDDLKLVLPECDSKVGSRMIITSRNSNVGRYIGGESSLHALQPLESEKSFELFTKKIFNFDDNNSWANASPDLVNIGRNIVGRCGGIPLAIVVTAGMLRARERTEHAWNRVLESMGHKVQDGCAKVLALSYNDLPIASRPCFLYFGLYPEDHEIRAFDLINMWIAEKFIVVNSGNRREAEDLAEDVLNDLVSRNLIQLAKRTYNGRISSCRIHDLLHSLCVDLAKESNFFHTAHDAFGDPGNVARLRRITFYSDNVMIEFFRSNPKLEKLRVLFCFAKDPSIFSHMAYFDFKLLHTLVVVMSQSFQAYVTIPSKFGNMTCLRYLRLEGNICGKLPNSIVKLTRLETIDIDRRSLIQPPSGVWESKHLRHLCYRDYGQACNSCFSISSFYPNIYSLHPNNLQTLMWIPDKFFEPRLLHRLINLRKLGILGVSNSTVKMLSIFSPVLKALEVLKLSFSSDPSEQIKLSSYPHIAKLHLNVNRTMALNSQSFPPNLIKLTLAYFSVDRYILAVLKTFPKLRKLKMFICKYNEEKMDLSGEANGYSFPQLEVLHIHSPNGLSEVTCTDDVSMPKLKKLLLTGFHCRISLSERLKKLSK", "values": [
      {"measurement": "binding", "setting": "Tm-2^2 (L233A) (tomato)", "value": "binds"}
    ]}
  ]
}
